These are yes or no findings as the source states them, for the method shown. A result given as binding can be weak or reduced; the word gives no strength. Where a sequence is shown, tags or fusion partners need not be part of it.

The target of experiment [1] is tau fibers (ftau). Kind of experiment: SPR, Construct 4 on ftau. (In SPR one partner is held on a chip, and binding of the other changes the refractive index at the surface.)
Experiment [2] deals with tau fibers (ftau). The experiment can be described thus: SPR.

B1: rs-g3p(N1N2)-hIgG4-Fc fusion protein (Construct 4) (Fc fusion)
chain: MAETVESCLAKPHTENSFTNVWKDDKTLDRYANYEGCLWNATGVVVCTGDETQCYGTWVPIGLAIPENEGGGSEGGGSEGGGSEGGGTKPPEYGDTPIPGYTYINPLDGTYPPGTEQNPANPNPSLEESQPLNTFMFQNNRFRNRQGALTVYTGTVTQGTDPVKTYYQYTPVSSKAMYDAYWNGKFRDCAFHSGFNEDPFVCEYQGQSSDLPQPPVNAGGGSGGGSGGGSEGGGSEGGGSEGGGSEGGGSGGGSGSGAMVRSPPCPSCPAPEFLGGPSVFLFPPKPKDTLMISRTPEVTCVVVDVSQEDPEVQFNWYVDGVEVHNAKTKPREEQFNSTYRVVSVLTVLHQDWLNGKEYKCKVSNKGLPSSIEKTISKAKGQPREPQVYTLPPSQEEMTKNQVSLTCLVKGFYPSDIAVEWESNGQPENNYKTTPPVLDSDGSFFLYSRLTVDKSRWQEGNVFSCSVMHEALHNHYTQKSLSLSPGK
With B1, the binding result in experiment [1] and in experiment [2] was “binds” each time.

The values are drawn from patent US20170305975A1.
